# Some entries share one result that the patent states for a list of compounds.
# System: Ornithidorus turicata
# Assay: Soft Tick (Ornithidorus turicata) Blood Feed Assay
# Conditions: nymphs fed on treated citrated bovine blood; knockdown and/or death at 24 and 72 hours
# Experimental: Soft Tick (Ornithidorus turicata) Blood Feed Assay
# Compounds were dissolved in DMSO and aliquots were added to citrated bovine blood in membrane covered wells warmed to 37° C. 5 nymphs were placed on the membrane, allowed to feed to repleation, and were placed in observation wells. […] Endpoint results for subjective visual assessment of organism viability were recorded as LD100 (the lowest dose to cause 100% mortality).
row,SMILES,LD100 (the lowest dose to cause 100% mortality) [µg/mL]
1,"CS(=O)(=O)CC(=O)N1CC2(C1)OCc1nc(C3=NOC(c4cc(Cl)c(F)c(Cl)c4)(C(F)(F)F)C3)ccc12 (stereo not shown) [Example 7, 1-(2′-(5-(3,5-dichloro-4-fluorophenyl)-5-(trifluoromethyl)-4,5-dihydroisoxazol-3-yl)-7′H-spiro[azetidine-3,5′-furo[3,4-b]pyridine]-1-yl)-2-(methylsulfonyl)ethanone]",> 3
2,"CS(=O)(=O)CC(=O)N1CC2(C1)OCc1nc(C3=NOC(c4cc(Cl)cc(Cl)c4)(C(F)(F)F)C3)ccc12 (stereo not shown) [Example 8, 1-(2′-(5-(3,5-dichlorophenyl)-5-(trifluoromethyl)-4,5-dihydroisoxazol-3-yl)-7′H-spiro[azetidine-3,5′-furo[3,4-b]pyridine]-1-yl)-2-(methylsulfonyl)ethanone]",> 3
3,"CS(=O)(=O)CC(=O)N1CC2(C1)OCc1nc(C3=NOC(c4cc(Cl)c(Cl)c(Cl)c4)(C(F)(F)F)C3)ccc12 (stereo not shown) [Example 9, 2-(methylsulfonyl)-1-(2′-(5-(3,4,5-trichlorophenyl)-5-(trifluoromethyl)-4,5-dihydroisoxazol-3-yl)-7′H-spiro[azetidine-3,5′-furo[3,4-b]pyridine]-1-yl)ethanone]",> 3
4,"CS(=O)(=O)CC(=O)N1CC2(C1)OCc1cc(C3=NOC(c4cc(Cl)cc(Cl)c4)(C(F)(F)F)C3)ncc12 (stereo not shown) [Example 15, 1-(6′-(5-(3,5-dichlorophenyl)-5-(trifluoromethyl)-4,5-dihydroisoxazol-3-yl)-1′H-spiro[azetidine-3,3′-furo[3,4-c]pyridine]-1-yl)-2-(methylsulfonyl)ethanone]",> 3
